The source of these data is paper PMC3843111.

Sequences of proteins named here, by UniProt entry; tags and fusion partners are left off. A change or cut given only in a name is not applied to a line headed by its entry.
UniProt Q8CHK4: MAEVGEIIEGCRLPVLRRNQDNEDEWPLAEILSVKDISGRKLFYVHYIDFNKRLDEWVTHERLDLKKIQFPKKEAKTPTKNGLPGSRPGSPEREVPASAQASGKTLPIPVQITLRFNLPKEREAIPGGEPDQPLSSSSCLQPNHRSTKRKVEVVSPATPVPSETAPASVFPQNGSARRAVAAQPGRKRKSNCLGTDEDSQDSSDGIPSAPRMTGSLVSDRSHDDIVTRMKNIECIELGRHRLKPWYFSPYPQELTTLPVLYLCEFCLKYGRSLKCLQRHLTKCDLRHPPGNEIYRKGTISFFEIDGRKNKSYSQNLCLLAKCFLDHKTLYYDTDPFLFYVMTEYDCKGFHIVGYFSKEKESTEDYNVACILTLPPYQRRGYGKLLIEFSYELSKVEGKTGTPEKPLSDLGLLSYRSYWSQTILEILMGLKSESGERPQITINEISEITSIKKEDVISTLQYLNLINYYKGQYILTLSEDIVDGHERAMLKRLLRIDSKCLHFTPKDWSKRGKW
UniProt Q62261: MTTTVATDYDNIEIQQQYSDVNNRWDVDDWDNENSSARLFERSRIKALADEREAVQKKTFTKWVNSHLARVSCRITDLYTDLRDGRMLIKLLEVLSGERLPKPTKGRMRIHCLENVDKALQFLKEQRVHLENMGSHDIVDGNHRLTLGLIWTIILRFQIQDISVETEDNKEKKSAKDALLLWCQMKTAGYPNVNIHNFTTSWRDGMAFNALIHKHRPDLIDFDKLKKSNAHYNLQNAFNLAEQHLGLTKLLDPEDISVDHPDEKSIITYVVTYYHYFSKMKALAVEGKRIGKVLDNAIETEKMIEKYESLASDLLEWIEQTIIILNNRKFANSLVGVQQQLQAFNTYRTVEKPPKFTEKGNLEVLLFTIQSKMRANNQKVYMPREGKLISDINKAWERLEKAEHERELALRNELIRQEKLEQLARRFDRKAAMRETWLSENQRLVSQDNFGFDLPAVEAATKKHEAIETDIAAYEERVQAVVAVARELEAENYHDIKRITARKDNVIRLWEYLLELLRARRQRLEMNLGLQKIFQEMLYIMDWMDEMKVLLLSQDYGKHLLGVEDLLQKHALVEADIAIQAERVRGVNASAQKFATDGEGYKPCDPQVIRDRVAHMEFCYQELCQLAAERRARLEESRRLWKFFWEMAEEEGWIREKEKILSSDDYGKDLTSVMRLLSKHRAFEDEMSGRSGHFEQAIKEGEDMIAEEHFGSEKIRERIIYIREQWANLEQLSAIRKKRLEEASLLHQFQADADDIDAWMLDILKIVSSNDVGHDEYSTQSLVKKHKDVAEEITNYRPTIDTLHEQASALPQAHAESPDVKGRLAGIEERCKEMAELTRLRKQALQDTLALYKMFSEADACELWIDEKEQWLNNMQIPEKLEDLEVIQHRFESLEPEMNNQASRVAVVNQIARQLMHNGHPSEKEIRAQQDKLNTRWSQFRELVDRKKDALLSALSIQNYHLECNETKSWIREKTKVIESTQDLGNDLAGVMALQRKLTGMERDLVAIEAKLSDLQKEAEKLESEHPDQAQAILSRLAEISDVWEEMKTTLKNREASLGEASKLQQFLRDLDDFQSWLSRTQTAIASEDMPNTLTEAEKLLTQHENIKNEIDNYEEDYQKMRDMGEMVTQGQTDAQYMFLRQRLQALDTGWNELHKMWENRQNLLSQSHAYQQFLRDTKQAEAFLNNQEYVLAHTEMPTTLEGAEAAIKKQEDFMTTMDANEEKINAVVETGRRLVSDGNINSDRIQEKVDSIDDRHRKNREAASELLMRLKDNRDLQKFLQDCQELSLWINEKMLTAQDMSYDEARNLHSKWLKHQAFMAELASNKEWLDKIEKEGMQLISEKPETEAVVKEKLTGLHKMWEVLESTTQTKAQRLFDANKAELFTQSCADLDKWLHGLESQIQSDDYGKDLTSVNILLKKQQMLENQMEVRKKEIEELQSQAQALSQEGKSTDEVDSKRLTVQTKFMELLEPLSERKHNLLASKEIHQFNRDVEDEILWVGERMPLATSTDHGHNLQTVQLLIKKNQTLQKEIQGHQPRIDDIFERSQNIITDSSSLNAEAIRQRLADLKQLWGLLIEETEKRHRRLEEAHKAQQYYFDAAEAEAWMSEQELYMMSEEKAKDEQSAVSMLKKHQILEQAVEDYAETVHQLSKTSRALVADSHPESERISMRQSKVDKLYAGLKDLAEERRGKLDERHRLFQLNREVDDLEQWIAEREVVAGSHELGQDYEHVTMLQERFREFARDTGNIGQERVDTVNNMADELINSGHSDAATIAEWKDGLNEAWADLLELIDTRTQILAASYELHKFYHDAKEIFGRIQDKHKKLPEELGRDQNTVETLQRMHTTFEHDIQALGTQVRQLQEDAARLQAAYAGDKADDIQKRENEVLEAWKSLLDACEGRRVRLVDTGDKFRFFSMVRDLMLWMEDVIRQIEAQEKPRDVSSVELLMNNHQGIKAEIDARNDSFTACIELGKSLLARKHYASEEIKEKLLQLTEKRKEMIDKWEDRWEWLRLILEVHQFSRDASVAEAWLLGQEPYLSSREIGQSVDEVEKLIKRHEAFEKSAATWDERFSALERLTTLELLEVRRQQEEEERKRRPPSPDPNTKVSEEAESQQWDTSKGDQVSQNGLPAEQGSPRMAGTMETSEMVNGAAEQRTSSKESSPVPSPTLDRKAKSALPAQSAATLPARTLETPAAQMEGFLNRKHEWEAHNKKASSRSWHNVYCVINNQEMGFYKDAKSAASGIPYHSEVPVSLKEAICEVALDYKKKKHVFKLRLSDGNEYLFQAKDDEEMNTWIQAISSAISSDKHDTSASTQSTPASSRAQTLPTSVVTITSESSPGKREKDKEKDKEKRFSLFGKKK
UniProt Q9DAT2: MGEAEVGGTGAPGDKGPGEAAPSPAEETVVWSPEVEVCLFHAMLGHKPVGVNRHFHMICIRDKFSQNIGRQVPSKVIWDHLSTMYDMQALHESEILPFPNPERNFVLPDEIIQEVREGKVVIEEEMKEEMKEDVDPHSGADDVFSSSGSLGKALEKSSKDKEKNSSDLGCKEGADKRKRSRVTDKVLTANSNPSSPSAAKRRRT
UniProt Q8CHI8: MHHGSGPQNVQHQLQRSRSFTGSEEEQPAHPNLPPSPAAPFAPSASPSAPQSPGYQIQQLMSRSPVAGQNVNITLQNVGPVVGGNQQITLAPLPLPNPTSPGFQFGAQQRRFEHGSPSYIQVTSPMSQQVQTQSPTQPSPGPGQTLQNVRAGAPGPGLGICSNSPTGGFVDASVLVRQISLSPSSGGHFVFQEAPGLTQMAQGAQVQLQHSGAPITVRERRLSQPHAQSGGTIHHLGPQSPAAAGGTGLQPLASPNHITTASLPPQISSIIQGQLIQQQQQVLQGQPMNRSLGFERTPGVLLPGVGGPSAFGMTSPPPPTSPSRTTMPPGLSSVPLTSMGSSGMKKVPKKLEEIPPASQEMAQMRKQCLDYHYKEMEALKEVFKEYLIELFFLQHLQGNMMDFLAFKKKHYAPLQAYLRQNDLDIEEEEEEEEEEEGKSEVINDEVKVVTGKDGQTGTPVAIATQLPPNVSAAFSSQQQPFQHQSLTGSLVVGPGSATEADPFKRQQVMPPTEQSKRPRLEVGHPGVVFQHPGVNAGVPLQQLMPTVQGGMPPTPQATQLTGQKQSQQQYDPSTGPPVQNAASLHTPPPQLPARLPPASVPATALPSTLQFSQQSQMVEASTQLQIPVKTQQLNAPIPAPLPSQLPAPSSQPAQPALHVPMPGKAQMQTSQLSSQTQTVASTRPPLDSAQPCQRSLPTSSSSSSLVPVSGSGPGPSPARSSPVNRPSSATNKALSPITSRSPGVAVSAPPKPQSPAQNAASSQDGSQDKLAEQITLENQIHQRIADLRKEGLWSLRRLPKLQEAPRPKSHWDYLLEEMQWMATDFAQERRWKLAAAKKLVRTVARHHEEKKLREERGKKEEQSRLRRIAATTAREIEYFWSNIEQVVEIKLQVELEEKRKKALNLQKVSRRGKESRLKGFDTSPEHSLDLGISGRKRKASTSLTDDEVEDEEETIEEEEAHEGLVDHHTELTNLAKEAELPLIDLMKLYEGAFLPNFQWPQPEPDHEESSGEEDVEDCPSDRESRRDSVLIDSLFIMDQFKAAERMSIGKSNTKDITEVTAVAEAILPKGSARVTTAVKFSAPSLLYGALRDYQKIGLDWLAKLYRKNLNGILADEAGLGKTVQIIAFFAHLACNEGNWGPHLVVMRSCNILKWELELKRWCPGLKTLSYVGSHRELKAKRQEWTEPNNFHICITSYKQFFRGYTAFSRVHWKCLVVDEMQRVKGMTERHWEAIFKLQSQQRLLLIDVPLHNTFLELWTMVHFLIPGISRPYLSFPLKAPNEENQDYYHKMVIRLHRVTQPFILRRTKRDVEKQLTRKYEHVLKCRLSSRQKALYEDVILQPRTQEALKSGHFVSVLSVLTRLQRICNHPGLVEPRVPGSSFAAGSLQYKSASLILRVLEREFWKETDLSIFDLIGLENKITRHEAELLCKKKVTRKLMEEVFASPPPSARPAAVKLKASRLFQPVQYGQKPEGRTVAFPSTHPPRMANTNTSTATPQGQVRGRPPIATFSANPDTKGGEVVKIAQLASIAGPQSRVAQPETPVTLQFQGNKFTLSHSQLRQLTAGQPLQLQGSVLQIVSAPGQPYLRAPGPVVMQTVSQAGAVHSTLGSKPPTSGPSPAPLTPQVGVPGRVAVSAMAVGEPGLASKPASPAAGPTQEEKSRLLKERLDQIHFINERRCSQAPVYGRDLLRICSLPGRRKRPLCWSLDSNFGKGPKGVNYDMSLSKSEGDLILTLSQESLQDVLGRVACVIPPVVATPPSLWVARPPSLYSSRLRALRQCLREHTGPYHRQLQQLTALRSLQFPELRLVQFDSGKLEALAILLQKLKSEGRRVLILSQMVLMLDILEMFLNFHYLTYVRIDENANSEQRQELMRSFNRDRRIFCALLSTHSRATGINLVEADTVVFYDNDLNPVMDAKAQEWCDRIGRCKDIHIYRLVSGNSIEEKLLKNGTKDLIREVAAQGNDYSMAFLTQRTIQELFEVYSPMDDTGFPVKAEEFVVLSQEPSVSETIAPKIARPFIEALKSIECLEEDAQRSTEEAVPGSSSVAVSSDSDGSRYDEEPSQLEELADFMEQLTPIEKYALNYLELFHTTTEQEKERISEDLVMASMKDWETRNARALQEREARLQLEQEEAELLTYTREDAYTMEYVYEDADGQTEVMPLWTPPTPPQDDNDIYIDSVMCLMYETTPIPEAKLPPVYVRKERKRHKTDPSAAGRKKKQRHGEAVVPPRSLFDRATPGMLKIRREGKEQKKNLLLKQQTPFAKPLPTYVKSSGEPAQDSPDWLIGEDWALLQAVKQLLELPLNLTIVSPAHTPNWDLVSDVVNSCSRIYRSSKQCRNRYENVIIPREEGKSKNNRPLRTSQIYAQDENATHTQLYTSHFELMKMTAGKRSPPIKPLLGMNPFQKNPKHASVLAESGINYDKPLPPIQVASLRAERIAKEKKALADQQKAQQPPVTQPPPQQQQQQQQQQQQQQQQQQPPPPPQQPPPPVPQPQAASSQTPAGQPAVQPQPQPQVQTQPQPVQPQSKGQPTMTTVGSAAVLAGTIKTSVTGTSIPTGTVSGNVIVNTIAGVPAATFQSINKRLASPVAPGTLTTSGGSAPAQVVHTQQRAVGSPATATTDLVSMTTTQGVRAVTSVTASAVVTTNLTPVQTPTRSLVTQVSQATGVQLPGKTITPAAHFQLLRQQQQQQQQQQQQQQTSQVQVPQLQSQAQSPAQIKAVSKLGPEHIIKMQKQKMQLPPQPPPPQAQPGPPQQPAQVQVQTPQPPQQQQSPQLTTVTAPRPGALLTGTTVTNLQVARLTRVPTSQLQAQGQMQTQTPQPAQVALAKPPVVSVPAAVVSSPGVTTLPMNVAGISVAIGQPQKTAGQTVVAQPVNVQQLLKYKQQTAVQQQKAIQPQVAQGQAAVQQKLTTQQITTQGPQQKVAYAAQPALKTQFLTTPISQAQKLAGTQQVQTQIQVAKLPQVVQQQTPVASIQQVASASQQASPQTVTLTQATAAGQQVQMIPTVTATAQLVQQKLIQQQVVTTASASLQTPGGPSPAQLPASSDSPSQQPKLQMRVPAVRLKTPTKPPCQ
UniProt Q8VEK6: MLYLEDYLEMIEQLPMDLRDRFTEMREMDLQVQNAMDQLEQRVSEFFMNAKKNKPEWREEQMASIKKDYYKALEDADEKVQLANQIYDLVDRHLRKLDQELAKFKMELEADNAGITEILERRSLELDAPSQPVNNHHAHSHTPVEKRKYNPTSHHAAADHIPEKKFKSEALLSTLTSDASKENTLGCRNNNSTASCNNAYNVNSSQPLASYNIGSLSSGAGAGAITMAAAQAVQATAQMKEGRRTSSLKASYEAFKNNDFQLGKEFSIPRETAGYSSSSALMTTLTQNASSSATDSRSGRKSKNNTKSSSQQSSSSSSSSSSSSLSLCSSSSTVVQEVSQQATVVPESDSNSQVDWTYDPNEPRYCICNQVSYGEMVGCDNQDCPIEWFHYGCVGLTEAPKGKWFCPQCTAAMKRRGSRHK

No constants are given. Whether binding was seen depends on the method and setting. Binding seen in cells or lysates may run through a third protein. A yes stands for co-enrichment or nearness to the bait. Other partners may have been found.

The target of the experiment is Tip60-H3F (Tip60 with a C-terminal 6-histidine-3-FLAG tag, from the endogenous gene) in ESCs (mouse (endogenous in ESCs)) (UniProt Q8CHK4). As to the kind of experiment: affinity purification with mass spectrometry; double affinity purification (FLAG-M2 Agarose, then TALON Agarose) of Tip60-H3F from ESC nuclear extracts, untagged cells as control; SDS-PAGE, in-gel digestion, LC-MS/MS.

In the case of “DNA methyltransferase 1-associated protein 1 (from UniProt Q9JI44 1-468)”, the binding entry is given as “binds”.
With “Leucine-rich repeat flightless-interacting protein 2 (from UniProt Q91WK0 1-415)” the entry was “binds”; with “Serine/threonine-protein kinase 38 (from UniProt Q91VJ4 1-465)”, “binds”; with “Spectrin beta chain, brain 1 (from UniProt Q62261 1-2363)”, “binds”.
With “Vacuolar protein sorting-associated protein 72 homolog (from UniProt Q62481 1-368)”, the binding entry is on record as “binds”.
The result for “YEATS domain-containing protein 4 (from UniProt Q9CR11 1-227)” reads “binds”; that for “MRG-binding protein (from UniProt Q9DAT2 1-204)”, “binds”; that for “E1A-binding protein p400 (from UniProt Q8CHI8 1-3072)”, “binds”.
Turning to “Probable helicase senataxin (from UniProt A2AKX3 1-2646)”, the binding entry is recorded as “binds”.
With RuvB-like 2 (from UniProt Q9WTM5 1-463) the entry was “binds”.
With “Tubulin beta-5 chain (from UniProt P99024 1-444)” the entry was “binds”; with “Transformation/transcription domain-associated protein (from UniProt Q80YV3 1-2565)”, “binds”; with “Inhibitor of growth protein 3 (from UniProt Q8VEK6 1-421)”, “binds”.
The result for “Mortality factor 4-like protein 2 (from UniProt Q9R0Q4 1-288)” reads “binds”.
With “LIM domain and actin-binding protein 1 (from UniProt Q9ERG0 1-753)”, the binding entry is reported as “binds”.
The result for RuvB-like 1 (from UniProt P60122 1-456) reads “binds”; that for “Enhancer of polycomb homolog 2 (from UniProt Q8C0I4 1-808)”, “binds”.
The result for “Enhancer of polycomb homolog 1 (from UniProt Q8C9X6 1-813)” reads “binds”; that for “Spectrin alpha chain, brain (from UniProt P16546 1-2472)”, “binds”.

B1: Splicing factor, proline- and glutamine-rich (protein, UniProt Q8VIJ6 1-699)
chain: MSRDRFRSRGGGGGGFHRRGGGGGRGGLHDFRSPPPGMGLNQNRGPMGPGPGGPKPPLPPPPPHQQQQQPPPQQPPPQQPPPHQQPPPHQPPHQQPPPPPQESKPVVPQGPGSAPGVSSAPPPAVSAPPANPPTTGAPPGPGPTPTPPPAVPSTAPGPPPPSTPSSGVSTTPPQTGGPPPPPAGGAGPGPKPGPGPGGPKGGKMPGGPKPGGGPGMGAPGGHPKPPHRGGGEPRGGRQHHAPYHQQHHQGPPPGGPGPRTEEKISDSEGFKANLSLLRRPGEKTYTQRCRLFVGNLPADITEDEFKRLFAKYGEPGEVFINKGKGFGFIKLESRALAEIAKAELDDTPMRGRQLRVRFATHAAALSVRNLSPYVSNELLEEAFSQFGPIERAVVIVDDRGRSTGKGIVEFASKPAARKAFERCSEGVFLLTTTPRPVIVEPLEQLDDEDGLPEKLAQKNPMYQKERETPPRFAQHGTFEYEYSQRWKSLDEMEKQQREQVEKNMKDAKDKLESEMEDAYHEHQANLLRQDLMRRQEELRRMEELHSQEMQKRKEMQLRQEEERRRREEEMMIRQREMEEQMRRQREESYSRMGYMDPRERDMRMGGGGTMNMGDPYGSGGQKFPPLGGGGGIGYEANPGVPPATMSGSMMGSDMRTERFGQGGAGPVGGQGPRGMGPGTPAGYGRGREEYEGPNKKPRF
For the molecule B1, the binding entry is recorded as “binds”.

B2: Ras-related protein Rab-5C (protein, UniProt P35278 1-216)
chain: MAGRGGAARPNGPAAGNKICQFKLVLLGESAVGKSSLVLRFVKGQFHEYQESTIGAAFLTQTVCLDDTTVKFEIWDTAGQERYHSLAPMYYRGAQAAIVVYDITNTDTFARAKNWVKELQRQASPNIVIALAGNKADLASKRAVEFQEAQAYADDNSLLFMETSAKTAMNVNEIFMAIAKKLPKNEPQNAAGAPGRTRGVDLQESNPASRSQCCSN
Take B2: the binding result was “binds”.

B3: Non-POU domain-containing octamer-binding protein (protein, UniProt Q99K48 1-473)
chain: MQSNKAFNLEKQNHTPRKHHQHHHQQHHQQQQQQQQQQPPPPIPANGQQASSQNEGLTIDLKNFRKPGEKTFTQRSRLFVGNLPPDITEEEMRKLFEKYGKAGEVFIHKDKGFGFIRLETRTLAEIAKVELDNMPLRGKQLRVRFACHSASLTVRNLPQYVSNELLEEAFSVFGQVERAVVIVDDRGRPSGKGIVEFSGKPAARKALDRCSEGSFLLTTFPRPVTVEPMDQLDDEEGLPEKLVIKNQQFHKEREQPPRFAQPGSFEYEYAMRWKALIEMEKQQQDQVDRNIKEAREKLEMEMEAARHEHQVMLMRQDLMRRQEELRRMEELHNQEVQKRKQLELRQEEERRRREEEMRRQQEEMMRRQQEGFKGTFPDAREQEIRMGQMAMGGAMGINNRGAMPPAPVPPGTPAPPGPATMMPDGTLGLTPPTTERFGQAATMEGIGAIGGTPPAFNRPAPGAEFAPNKRRRY
As to B3, the binding result was “binds”.

B4: Heterogeneous nuclear ribonucleoprotein F (protein, UniProt Q9Z2X1 1-415)
chain: MMLGPEGGEGYVVKLRGLPWSCSIEDVQNFLSDCTIHDGVAGVHFIYTREGRQSGEAFVELESEDDVKLALKKDRESMGHRYIEVFKSHRTEMDWVLKHSGPNSADSANDGFVRLRGLPFGCTKEEIVQFFSGLEIVPNGITLPVDPEGKITGEAFVQFASQELAEKALGKHKERIGHRYIEVFKSSQEEVRSYSDPPLKFMSVQRPGPYDRPGTARRYIGIVKQAGLDRMRSGAYSAGYGGYEEYSGLSDGYGFTTDLFGRDLSYCLSGMYDHRYGDSEFTVQSTTGHCVHMRGLPYKATENDIYNFFSPLNPVRVHIEIGPDGRVTGEADVEFATHEEAVAAMSKDRANMQHRYIELFLNSTTGASNGAYSSQVMQGMGVSAAQATYSGLESQSVSGCYGAGYSGQNSMGGYD
B4: the binding result is recorded as “binds”.

B5: Ran GTPase-activating protein 1 (protein, UniProt P46061 1-589)
chain: MASEDIAKLAETLAKTQVAGGQLSFKGKGLKLNTAEDAKDVIKEIEEFDGLEALRLEGNTVGVEAARVIAKALEKKSELKRCHWSDMFTGRLRSEIPPALISLGEGLITAGAQLVELDLSDNAFGPDGVRGFEALLKSPACFTLQELKLNNCGMGIGGGKILAAALTECHRKSSAQGKPLALKVFVAGRNRLENDGATALAEAFGIIGTLEEVHMPQNGINHPGVTALAQAFAINPLLRVINLNDNTFTEKGGVAMAETLKTLRQVEVINFGDCLVRSKGAVAIADAVRGGLPKLKELNLSFCEIKRDAALVVAEAVADKAELEKLDLNGNALGEEGCEQLQEVMDSFNMAKVLASLSDDEGEDEDEEEEGEEDDEEEEDEEDEEDDDEEEEEQEEEEEPPQRGSGEEPATPSRKILDPNSGEPAPVLSSPTPTDLSTFLSFPSPEKLLRLGPKVSVLIVQQTDTSDPEKVVSAFLKVASVFRDDASVKTAVLDAIDALMKKAFSCSSFNSNTFLTRLLIHMGLLKSEDKIKAIPSLHGPLMVLNHVVRQDYFPKALAPLLLAFVTKPNGALETCSFARHNLLQTLYNI
As for B5, the binding result is listed as “binds”.

B6: Splicing factor 3B subunit 1 (protein, UniProt Q99NB9 1-1304)
chain: MAKIAKTHEDIEAQIREIQGKKAALDEAQGVGLDSTGYYDQEIYGGSDSRFAGYVTSIAATELEDDDDDYSSSTSLLGQKKPGYHAPVALLNDIPQSTEQYDPFAEHRPPKIADREDEYKKHRRTMIISPERLDPFADGGKTPDPKMNARTYMDVMREQHLTKEEREIRQQLAEKAKAGELKVVNGAAASQPPSKRKRRWDQTADQTPGATPKKLSSWDQAETPGHTPSLRWDETPGRAKGSETPGATPGSKIWDPTPSHTPAGAATPGRGDTPGHATPGHGGATSSARKNRWDETPKTERDTPGHGSGWAETPRTDRGGDSIGETPTPGASKRKSRWDETPASQMGGSTPVLTPGKTPIGTPAMNMATPTPGHIMSMTPEQLQAWRWEREIDERNRPLSDEELDAMFPEGYKVLPPPAGYVPIRTPARKLTATPTPLGGMTGFHMQTEDRTMKSVNDQPSGNLPFLKPDDIQYFDKLLVDVDESTLSPEEQKERKIMKLLLKIKNGTPPMRKAALRQITDKAREFGAGPLFNQILPLLMSPTLEDQERHLLVKVIDRILYKLDDLVRPYVHKILVVIEPLLIDEDYYARVEGREIISNLAKAAGLATMISTMRPDIDNMDEYVRNTTARAFAVVASALGIPSLLPFLKAVCKSKKSWQARHTGIKIVQQIAILMGCAILPHLRSLVEIIEHGLVDEQQKVRTISALAIAALAEAATPYGIESFDSVLKPLWKGIRQHRGKGLAAFLKAIGYLIPLMDAEYANYYTREVMLILIREFQSPDEEMKKIVLKVVKQCCGTDGVEANYIKTEILPPFFKHFWQHRMALDRRNYRQLVDTTVELANKVGAAEIISRIVDDLKDEAEQYRKMVMETIEKIMGNLGAADIDHKLEEQLIDGILYAFQEQTTEDSVMLNGFGTVVNALGKRVKPYLPQICGTVLWRLNNKSAKVRQQAADLISRTAVVMKTCQEEKLMGHLGVVLYEYLGEEYPEVLGSILGALKAIVNVIGMHKMTPPIKDLLPRLTPILKNRHEKVQENCIDLVGRIADRGAEYVSAREWMRICFELLELLKAHKKAIRRATVNTFGYIAKAIGPHDVLATLLNNLKVQERQNRVCTTVAIAIVAETCSPFTVLPALMNEYRVPELNVQNGVLKSLSFLFEYIGEMGKDYIYAVTPLLEDALMDRDLVHRQTASAVVQHMSLGVYGFGCEDSLNHLLNYVWPNVFETSPHVIQAVMGALEGLRVAIGPCRMLQYCLQGLFHPARKVRDVYWKIYNSIYIGSQDALIAHYPRIYNDDKNTYIRYDLDYIL
For B6, the binding result was “binds”.
